Reference: patent US20240091259A1, “GENERATION OF ANTI-TUMOR T CELLS” (Dana-Farber Cancer Institute, Inc., priority 2022, published 2024)

Test system: CD8+ TILs
Test: scRNA-seq / CITEseq differential expression among CD8+ TIL clusters
Design: species or system human
Conditions: differentially expressed genes among the 12 clusters of CD8+ TILs, adjusted P value < 0.05

## CCL4
Cluster 3: CD8 Effectors
  avg_logFC: 1.409
Cluster 7: NK-like
  avg_logFC: −2.356
